Data taken from publication PMC12219335.
Changes are numbered by the printed parent chain. These are yes or no findings as the source states them, for the method shown. Binding seen in cells or lysates may run through a third protein. Some results given as binding are weak or reduced against the parent protein; the word gives no strength. For part of these data: Tags and fused reporters may be left off the sequences shown.

Amino acid sequences for entries named in this document (tags omitted). Residues count along the entry.
UniProt Q9NZQ7, residues 19-290: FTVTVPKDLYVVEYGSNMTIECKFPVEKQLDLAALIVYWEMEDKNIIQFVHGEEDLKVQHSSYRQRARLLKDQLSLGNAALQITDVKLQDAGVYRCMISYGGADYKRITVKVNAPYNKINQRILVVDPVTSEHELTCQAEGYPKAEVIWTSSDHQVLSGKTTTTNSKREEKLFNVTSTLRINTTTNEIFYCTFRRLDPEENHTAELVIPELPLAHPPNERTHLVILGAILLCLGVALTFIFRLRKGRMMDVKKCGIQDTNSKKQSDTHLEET

How the values were obtained:
3xFlag-CHP1-NmyrMT = biological target: T1, 3xFlag-CHP1-NmyrMT (UniProt Q99653); assay: co-IP; tumor cell lines (not named) transfected with 3xFlag-CHP1-WT or 3xFlag-CHP1-NmyrMT; anti-FLAG M2 (5 µg/IP); blots for Flag and PD-L1
T1 sequence: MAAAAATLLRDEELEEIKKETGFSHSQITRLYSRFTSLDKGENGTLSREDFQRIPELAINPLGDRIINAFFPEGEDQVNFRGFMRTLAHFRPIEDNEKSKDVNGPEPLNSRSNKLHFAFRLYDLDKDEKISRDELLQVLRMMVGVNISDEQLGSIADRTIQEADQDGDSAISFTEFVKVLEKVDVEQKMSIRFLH

3xFlag-CHP1-WT = biological target: T2, 3xFlag-CHP1-WT (UniProt Q99653); assay: as above
T2 sequence (chain, N-terminal myristoylation (labelled by YnMyr, Fig. 5J)): T1 sequence with A2G, A3S, A4R, A6S

[1] = biological target: T3, calcineurin B homologous protein 1 (CHP1) (human (endogenous in SCC9)) (UniProt Q99653); assay: co-IP; endogenous proteins; anti-CHP1 (2.5 µg/IP) or anti-PD-L1 (2.5 µg/IP) antibody, Western blot; SCC9 cells, also after NMT1 knock-down (shNMT1), IP with anti-CHP1 and blot for PD-L1
T3 sequence (chain, N-terminal myristoylation (by NMT1; labelled by YnMyr)): T1 sequence with A2G, A3S, A4R, A6S

Question: “programmed death ligand 1 (PD-L1) (from UniProt Q9NZQ7 19-290)” was tested. Which binding (3xFlag-CHP1-NmyrMT) did it give?
Answer: no binding

Question: What about the binding (3xFlag-CHP1-WT) of the same substance?
Answer: binds

Question: And the binding [1]?
Answer: binds
